Values from PubChem BioAssay AID1508597 (Cure First, 2020)
Purpose: 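Knock-downs altering ovarian cancer cell survival with or without PARP inhibitor rucaparib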 (primary screen). Cell system: human ovarian carcinoma lines grown from tumours: OCI-P5x (papillary serous) and OCI-C5x (clear cell). Reagents: siRNA pool against human genes, 1.25 pmol siRNA per well. Time to read-out: 72 h or 96 h, depending on the cell culture. Challenge: rucaparib 20 µM (about IC30) or vehicle, present until read-out. Rucaparib or vehicle: Rucaparib. Cell line: OCI-P5x (serous). Measurement: 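Luminescent ATP-based viability assay read 72 or 96 h after transfection, depending on culture, given as normalised percent viability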. Direction: viability, normalised: higher = more viable cells remaining. Call rule: 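Active when normalised viability falls below 80 percent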. Calls: active = viability under 80%; inactive = viability 80% or more.
This is an unselected part of the about 2,100 reagents, under one of the conditions tested. 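Calls flag viability under 80% in either arm, not effects specific to rucaparib; the reference for percent is not stated.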 A reagent listed more than once was tested more than once; the source does not tell the runs apart. Reagent sequences are not shown. Not given: the 100% reference.

Gene	technical replicate	viability, normalised (%)	outcome
XPA (XPA, DNA damage recognition and repair factor)	1	78	active
XPA (XPA, DNA damage recognition and repair factor)	2	74.7	active
XPA (XPA, DNA damage recognition and repair factor)	3	76.3	active
NEK2 (NIMA related kinase 2)	1	109	inactive
NEK2 (NIMA related kinase 2)	1	84	inactive
NEK2 (NIMA related kinase 2)	2	59.7	active
NEK2 (NIMA related kinase 2)	2	101	inactive
NEK2 (NIMA related kinase 2)	3	79.7	active
NEK2 (NIMA related kinase 2)	3	97.3	inactive
EZH1 (enhancer of zeste 1 polycomb repressive complex 2 subunit)	1	52.7	active
EZH1 (enhancer of zeste 1 polycomb repressive complex 2 subunit)	2	52.6	active
EZH1 (enhancer of zeste 1 polycomb repressive complex 2 subunit)	3	48.3	active
STK24 (serine/threonine kinase 24)	1	88.8	inactive
STK24 (serine/threonine kinase 24)	2	87.8	inactive
STK24 (serine/threonine kinase 24)	3	66.8	active
SPTA1 (spectrin alpha, erythrocytic 1)	1	61.8	active
SPTA1 (spectrin alpha, erythrocytic 1)	2	65.1	active
SPTA1 (spectrin alpha, erythrocytic 1)	3	63	active
PAK6 (p21 (RAC1) activated kinase 6)	1	89.3	inactive
PAK6 (p21 (RAC1) activated kinase 6)	1	100	inactive
PAK6 (p21 (RAC1) activated kinase 6)	2	87.7	inactive
PAK6 (p21 (RAC1) activated kinase 6)	2	94.2	inactive
PAK6 (p21 (RAC1) activated kinase 6)	3	99.1	inactive
PAK6 (p21 (RAC1) activated kinase 6)	3	89.6	inactive
ATM (ATM serine/threonine kinase)	1	84.6	inactive
ATM (ATM serine/threonine kinase)	1	133	inactive
ATM (ATM serine/threonine kinase)	2	117	inactive
ATM (ATM serine/threonine kinase)	2	103	inactive
ATM (ATM serine/threonine kinase)	3	90.4	inactive
ATM (ATM serine/threonine kinase)	3	122	inactive
PRDM7 (PR/SET domain 7)	1	59.8	active
PRDM7 (PR/SET domain 7)	2	54.8	active
PRDM7 (PR/SET domain 7)	3	55	active
UBR7 (ubiquitin protein ligase E3 component n-recognin 7)	1	52	active
UBR7 (ubiquitin protein ligase E3 component n-recognin 7)	2	54.9	active
UBR7 (ubiquitin protein ligase E3 component n-recognin 7)	3	63.6	active
STK33 (serine/threonine kinase 33)	1	85.3	inactive
STK33 (serine/threonine kinase 33)	2	72.8	active
STK33 (serine/threonine kinase 33)	3	71	active

Targets above whose gene name begins with U or u:
Gene	technical replicate	viability, normalised (%)	outcome
UBR7 (ubiquitin protein ligase E3 component n-recognin 7)	1	52	active
UBR7 (ubiquitin protein ligase E3 component n-recognin 7)	2	54.9	active
UBR7 (ubiquitin protein ligase E3 component n-recognin 7)	3	63.6	active
